No constants are given. Whether binding was seen depends on the method and setting. In cells and extracts the contact can be indirect. Some binding calls cover weakened binding; strength is not graded here. For some assays here: Tags and fused reporters may be left off the sequences shown.
How the values were obtained:
[1] = target: MCRS1-FLAG (microspherule protein 1, FLAG-tagged) (human) (UniProt Q96EZ8); test: co-IP; HEK293T cells transfected for 16 hr, lysed in Nonidet P-40 lysis buffer; lysates immunoprecipitated with anti-FLAG antibody conjugated with agarose beads (anti-FLAG M2 affinity gel) overnight at 4 °C; immunoblot
[2] = target: MCRS1-FLAG (microspherule protein 1, FLAG-tagged) (human) (UniProt Q96EZ8); test: co-IP; co-immunoprecipitation of MCRS1 and NDE1 with or without overexpressed TTBK2; resin and tags for this experiment not told (Supplementary Fig. S3)

Chains of the proteins cited; added tags and fusions are not shown.
UniProt Q96EZ8: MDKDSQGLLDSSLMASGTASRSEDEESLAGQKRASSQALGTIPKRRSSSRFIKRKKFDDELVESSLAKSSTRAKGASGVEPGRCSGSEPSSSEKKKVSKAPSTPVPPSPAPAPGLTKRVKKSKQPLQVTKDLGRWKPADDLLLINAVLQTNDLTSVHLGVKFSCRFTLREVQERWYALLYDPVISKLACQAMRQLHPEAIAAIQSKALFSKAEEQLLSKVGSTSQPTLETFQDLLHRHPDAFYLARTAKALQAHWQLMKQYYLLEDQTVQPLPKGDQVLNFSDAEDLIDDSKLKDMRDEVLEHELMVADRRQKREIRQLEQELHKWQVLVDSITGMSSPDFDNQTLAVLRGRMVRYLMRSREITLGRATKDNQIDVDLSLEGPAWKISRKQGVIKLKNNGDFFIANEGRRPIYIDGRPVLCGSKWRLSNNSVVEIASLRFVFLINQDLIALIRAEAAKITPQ
UniProt Q6IQ55: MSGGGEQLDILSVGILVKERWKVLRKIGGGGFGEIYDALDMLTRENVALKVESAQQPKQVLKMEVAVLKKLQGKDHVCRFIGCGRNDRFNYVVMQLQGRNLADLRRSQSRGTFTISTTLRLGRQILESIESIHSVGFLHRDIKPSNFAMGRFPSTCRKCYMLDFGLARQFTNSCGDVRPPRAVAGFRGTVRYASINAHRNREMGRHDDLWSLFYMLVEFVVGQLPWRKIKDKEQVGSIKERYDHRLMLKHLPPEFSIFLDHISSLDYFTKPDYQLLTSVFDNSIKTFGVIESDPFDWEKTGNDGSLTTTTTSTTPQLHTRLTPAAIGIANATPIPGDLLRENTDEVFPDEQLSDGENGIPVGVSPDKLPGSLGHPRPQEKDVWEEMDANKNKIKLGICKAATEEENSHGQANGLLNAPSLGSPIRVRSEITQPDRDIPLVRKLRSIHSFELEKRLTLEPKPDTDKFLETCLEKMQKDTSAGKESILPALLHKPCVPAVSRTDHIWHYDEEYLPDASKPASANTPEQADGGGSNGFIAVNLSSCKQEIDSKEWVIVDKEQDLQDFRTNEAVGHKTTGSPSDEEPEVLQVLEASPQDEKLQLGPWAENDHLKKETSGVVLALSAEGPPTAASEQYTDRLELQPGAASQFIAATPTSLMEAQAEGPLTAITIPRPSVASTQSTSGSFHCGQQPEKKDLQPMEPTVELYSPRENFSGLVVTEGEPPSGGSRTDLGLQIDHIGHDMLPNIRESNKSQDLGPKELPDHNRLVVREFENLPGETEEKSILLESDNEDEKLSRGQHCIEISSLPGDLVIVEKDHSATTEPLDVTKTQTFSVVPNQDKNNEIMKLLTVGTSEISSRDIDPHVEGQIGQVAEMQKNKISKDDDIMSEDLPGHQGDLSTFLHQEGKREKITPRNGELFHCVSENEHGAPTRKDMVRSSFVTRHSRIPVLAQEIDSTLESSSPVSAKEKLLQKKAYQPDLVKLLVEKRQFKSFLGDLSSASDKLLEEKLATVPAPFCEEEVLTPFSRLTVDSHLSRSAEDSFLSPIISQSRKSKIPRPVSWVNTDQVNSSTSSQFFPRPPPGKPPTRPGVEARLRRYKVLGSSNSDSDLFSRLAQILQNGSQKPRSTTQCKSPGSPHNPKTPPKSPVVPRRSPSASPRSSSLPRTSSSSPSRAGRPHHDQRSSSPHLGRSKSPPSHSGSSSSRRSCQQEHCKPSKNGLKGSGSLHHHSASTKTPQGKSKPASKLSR

binding [1]	binding [2]	Molecule
binds		TTBK2-GFP (from UniProt Q6IQ55 1-1244)
	binds	NDE1-MYC (protein, UniProt Q9NXR1 1-335) MEDSGKTFSSEEEEANYWKDLAMTYKQRAENTQEELREFQEGSREYEAELETQLQQIETRNRDLLSENNRLRMELETIKEKFEVQHSEGYRQISALEDDLAQTKAIKDQLQKYIRELEQANDDLERAKRATIMSLEDFEQRLNQAIERNAFLESELDEKENLLESVQRLKDEARDLRQELAVQQKQEKPRTPMPSSVEAERTDTAVQATGSVPSTPIAHRGPSSSLNTPGSFRRGLDDSTGGTPLTPAARISALNIVGDLLRKVGALESKLASCRNLVYDQSPNRTGGPASGRSSKNRDGGERRPSSTSVPLGDKGLDTSCRWLSKSTTRSSSSC

— publication PMC4893664
